Earlier results as cited in patent US20060281818A1, “Method for treating mucosal disorders” (SUCAMPO AG, NORTH CAROLINA STATE UNIVERSITY, priority 2005, published 2006).
At least one structure is not confirmed: it was looked up by name or label, or the drawing left a doubt.

Tested on: barrier function
Conditions: Am. J. Physiol. Gastrointest. Liver Physiol. 281:G375-81, 2001; cited from earlier work

| SMILES | effects on barrier function (result in words) |
| --- | --- |
| CCCCC(C)(O)C/C=C/[C@H]1[C@H](O)CC(=O)[C@@H]1CCCCCCC(=O)OC (mixture of isomers) [Misoprostol] | shown to have effects on barrier function |
| CS(=O)(=O)NC(=O)CCC/C=C\C[C@H]1C(=O)C[C@@H](O)[C@@H]1/C=C/[C@@H](O)COc1ccccc1 [Sulprostone] | had not effects |
